Screening data

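Control-channel Italica luciferase signal in doxycycline-induced 293T-iDUX4 cells, given as percent activity after a 24-hour treatment. The test concentration is not given here. Percent change in the Italica control signal; more negative values mean stronger inhibition, which points to nonspecific, tet-on or cytotoxic effects.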

Values are in %. Common to all entries: measured here: Italica tet-on control reporter. This is a side read-out of the assay, for part of the compounds, not drawn at random.

SMILES | activity change (%)
O=S(=O)(c1ccc(F)cc1)N1CC[C@@H]2[C@@H](CO)Nc3ccc(-c4ccc(F)cc4)cc3[C@@H]21 | -41.33
N#C[C@@H]1[C@H](c2ccccc2C2=CCCCC2)[C@H](CO)N1C(=O)Cc1ccncc1 | 3.084
COc1ccc2c3c([nH]c2c1)[C@H](CO)N(C)CC31CCN(C(=O)c2ccccc2F)CC1 | -6.716
COc1cccc(-c2ccc([C@H]3[C@H]4CN(S(=O)(=O)c5cccs5)CCCCN4[C@H]3CO)cc2)c1 | -16.85
O=C(C[C@H]1CC[C@@H]2[C@H](COC[C@@H](O)CN2Cc2ccc(Cl)cc2)O1)Nc1nccs1 | -16.71
O=C(c1ccc(F)cc1)N1CC(=O)N2[C@H](C1)[C@@H](c1ccc(C#CCC3CCCC3)cc1)[C@@H]2CO | -9.009
O=C(C[C@H]1CC[C@@H]2[C@H](COC[C@@H](O)CN2C(=O)Nc2cccc(F)c2)O1)NCc1ccccc1Cl | -5.216
C[C@H](NC(=O)C[C@@H]1C[C@@H]2c3cc(NC(=O)Nc4ccc(C(F)(F)F)cc4)ccc3O[C@@H]2[C@@H](CO)O1)c1ccccc1 | -60.48
COc1ccc(NC(=O)N2CC(=O)N3[C@H](C2)[C@@H](c2ccc(/C=C/c4ccccc4)cc2)[C@@H]3CO)cc1 | -19.01
COc1ccc(NC(=O)N2CCCCN3[C@H](CO)[C@H](c4ccc(-c5ccccc5F)cc4)[C@@H]3C2)cc1 | -13.9
C[C@@H]1CN([C@@H](C)CO)C(=O)c2c(c3ccccc3n2C)-c2ccccc2CO[C@H]1CN(C)Cc1cccc(C(=O)Nc2ccccc2N)c1 | -18.45
O=C(C[C@@H]1CC[C@H]2[C@@H](COC[C@@H](O)CN2Cc2ccccc2F)O1)N1CCc2ccccc2C1 | -6.402
Cc1cccc(S(=O)(=O)N2CCCCN3[C@H](CO)[C@@H](c4ccc(C#C[C@H](C)O)cc4)[C@H]3C2)c1 | -27.02
C[C@H]1CN([C@@H](C)CO)C(=O)c2c(c3ccccc3n2C)-c2ccccc2CO[C@H]1CN(C)C(=O)Nc1cccc(C(F)(F)F)c1 | -92.16
COc1ccc2c3c([nH]c2c1)[C@@H](CO)N(S(=O)(=O)c1ccc(C)cc1)CC31CCN(Cc2nccs2)CC1 | -9.916
COc1cccc(-c2ccc([C@H]3[C@@H](CO)N4CCCCN(C(=O)c5ccc6c(c5)OCO6)C[C@@H]34)cc2)c1 | -54.16
CO[C@H]1CN(C)C(=O)c2ccc(NC(=O)c3cccc(F)c3)cc2OC[C@@H](C)N(CC2CC2)C[C@@H]1C | -5.277
O=C(C[C@@H]1CC[C@@H]2[C@H](COC[C@H](O)CN2Cc2cc(F)ccc2F)O1)NCc1ccc(Oc2ccccc2)cc1 | -75.45
CO[C@@H]1CN(C)C(=O)c2cc(NC(=O)c3nc4ccccc4s3)ccc2OC[C@H](C)NC[C@@H]1C | -13.58
COc1ccc(NC(=O)N(C)C[C@@H]2OCc3ccccc3-c3c(n(C)c4ccccc34)C(=O)N([C@H](C)CO)C[C@H]2C)c(OC)c1 | -5.699
COc1cccc(S(=O)(=O)N2C[C@@H]3N[C@H](C2)C3c2ccc(-c3cccc(C)c3)cc2)c1 (some centres undefined) | -63.34
N#Cc1cccc(-c2ccc([C@H]3[C@@H](CO)N4CCCCN(C(=O)Nc5cccc(F)c5)C[C@H]34)cc2)c1 | -23.46
C/C=C/c1ccc([C@@H]2[C@H](CO)N(CC3CC3)C23CN(C(=O)c2ccc4c(c2)OCO4)C3)cc1 | 2.089
C[C@H](NC(=O)C[C@H]1CC[C@H]2[C@@H](COC[C@@H](O)CN2C(=O)Nc2cc(Cl)cc(Cl)c2)O1)c1ccccc1 | -18.81
CCCC#Cc1ccc([C@H]2[C@H]3CN(S(=O)(=O)c4ccccc4C)CC(=O)N3[C@H]2CO)cc1 | -1.109
Cc1ccccc1S(=O)(=O)N1C[C@@H]2N[C@H](C1)C2c1ccc(-c2cccc(C(=O)N(C)C)c2)cc1 (some centres undefined) | -37.62
COc1ccccc1-c1ccc([C@H]2[C@H]3CN(Cc4ccncc4)CCCCN3[C@H]2CO)cc1 | -2.078
N#Cc1ccc(-c2ccc(C3[C@@H]4CN(C(=O)Cc5ccccc5)C[C@H]3N4)cc2)cc1 (some centres undefined) | -17.81
COc1cccc(-c2ccccc2[C@@H]2[C@@H](CO)N(C(=O)Cc3ccccc3)[C@H]2C#N)c1 | -16.37
C[C@@H]1CN([C@H](C)CO)C(=O)c2ccccc2-c2ccccc2CO[C@H]1CN(C)C(=O)Nc1cccc(C(F)(F)F)c1 | -66.92
COc1ccc(-c2ccc3c(c2)[C@H]2[C@H](CCN2C(=O)Nc2ccccc2OC)[C@H](CO)N3C)cc1 | -49.82
C[C@H](CO)N1C[C@H](C)[C@H](CN(C)C(=O)c2cc(Cl)cc(Cl)c2)OCc2ccccc2-c2c(n(C)c3ccccc23)C1=O | -97.79
COc1ccc2c3c(n(C)c2c1)[C@H](CO)N(C(=O)Nc1ccccc1F)CC31CN(C(=O)c2ccccc2F)C1 | -36.47
C[C@H](CO)N1C[C@H](C)[C@H](CN(C)S(=O)(=O)c2ccc(Cl)cc2)OCc2ccccc2-c2ccccc2C1=O | -49.11
CO[C@@H]1CN(C)C(=O)c2ccc(NC(=O)Nc3cccc(Cl)c3)cc2OC[C@@H](C)NC[C@H]1C | -17.77
CS(=O)(=O)Nc1ccc2c(c1)[C@@H]1C[C@@H](CC(=O)NCc3ccc(Oc4ccccc4)cc3)O[C@@H](CO)[C@@H]1O2 | -52.16
COc1ccc2c3c(n(C)c2c1)[C@H](CO)N(Cc1ccccc1)CC31CCN(S(=O)(=O)c2ccc(C)cc2)CC1 | -98.83
O=C(C[C@H]1CC[C@H]2[C@@H](COC[C@@H](O)CN2Cc2cc(F)cc(F)c2)O1)Nc1nccs1 | -12.4
CCc1nc(N2[C@H](CO)[C@@H](c3ccccc3-c3ccc(F)cc3)[C@@H]2C#N)sc1C | -10.76
COc1ccc2c3c([nH]c2c1)[C@H](CO)N(S(=O)(=O)c1ccc(C)cc1)CC31CN(Cc2ccccc2)C1 | -2.117
COc1ccc(C#Cc2ccc([C@H]3[C@@H](CO)N4CCCCN(S(=O)(=O)c5cn(C)cn5)C[C@@H]34)cc2)cc1 | -13.96
O=C(C[C@H]1C[C@H]2c3cc(NS(=O)(=O)c4ccc(F)cc4)ccc3O[C@H]2[C@@H](CO)O1)NCc1ccc(Oc2ccccc2)cc1 | -56.86
CCCN1C[C@@H](C)[C@H](OC)CN(C)C(=O)c2cc(NS(=O)(=O)c3ccccc3)ccc2OC[C@H]1C | -3.045
COc1ccc(-c2ccc3c(c2)[C@H]2[C@H](CCN2S(=O)(=O)c2ccc(OC)cc2)[C@@H](CO)N3C)cc1 | -62.88

Some entries from above, unchanged:

Result for O=C(C[C@H]1CC[C@@H]2[C@H](COC[C@@H](O)CN2C(=O)Nc2cccc(F)c2)O1)NCc1ccccc1Cl was activity change -5.216%.
Result for COc1cccc(S(=O)(=O)N2C[C@@H]3N[C@H](C2)C3c2ccc(-c3cccc(C)c3)cc2)c1 (some centres undefined) was activity change -63.34%.
Result for CO[C@H]1CN(C)C(=O)c2ccc(NC(=O)c3cccc(F)c3)cc2OC[C@@H](C)N(CC2CC2)C[C@@H]1C was activity change -5.277%.

Source: PubChem BioAssay AID1224904 (Broad Institute, 2016).